According to patent publication US20120204275A1 (NEOTOPE BIOSCIENCES, published 2012):
No constants are given. Whether binding was seen depends on the method and setting. Some binding calls cover weakened binding; strength is not graded here.

The chains behind the UniProt entries cited, without tags or fusion partners. Where a name states a change or a piece, a line headed by the entry shows the natural chain unless it says otherwise.
UniProt P02649: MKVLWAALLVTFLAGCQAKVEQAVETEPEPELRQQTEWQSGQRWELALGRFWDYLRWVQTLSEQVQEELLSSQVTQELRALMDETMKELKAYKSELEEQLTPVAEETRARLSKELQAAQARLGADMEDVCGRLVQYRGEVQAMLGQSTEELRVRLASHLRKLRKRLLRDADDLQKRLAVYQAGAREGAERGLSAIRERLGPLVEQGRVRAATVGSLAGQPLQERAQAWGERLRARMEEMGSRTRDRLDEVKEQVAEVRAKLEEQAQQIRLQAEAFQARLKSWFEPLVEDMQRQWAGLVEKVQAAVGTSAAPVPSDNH

How the values were obtained:
ApoE4(1-272) (human) [1] = biological target: ApoE4(1-272) (human) (UniProt P02649); experiment: immunoprecipitation from cell lysate, western blot with 1F9
ApoE4(1-272) (human) [2] = biological target: ApoE4(1-272) (human) (UniProt P02649); experiment: western blot of cortical lysate of E4 knock-in mouse; band (about 30 and 60 KDa) said to be consistent with ApoE(1-272) monomer and dimer
ApoE3(1-272) (human) = ApoE3(1-272) (human) (UniProt P02649); experiment: western blot of cortical lysate of E3 knock-in mouse; band (about 30 and 60 KDa) said to be consistent with ApoE(1-272) monomer and dimer

binding (ApoE4(1-272) (human) [1]) | binding (ApoE4(1-272) (human) [2]) | binding (ApoE3(1-272) (human)) | Binder
binds | binds | binds | mouse monoclonal antibody 15G8 (antibody, V domains shown, Same variable regions as 12C12 and 15E10; also called m15G8; mouse 15G8) VH: EVKLVESGGGLVKPGGSLKLSCAASGFTFSFYAMSWVRQTPEKRLEWVASLSRGGSTYYPDSVKGRFTISRDNARNTLYLQMSSLRSEDTAMFYCAREGATALYAMDYWGQGTSVTVSS VL: DVLMTQTPLSLPVSLGDQASISCRSSQSIVHSNGNTYLQWYLQKPGQSPKLLIYKVSNRFSGVPDRFSGSGSGTDFTLKISRVEAEDLGIYYCFQGSHVPWTFGGGTKLEIK
 | binds | binds | mouse monoclonal antibody 12C12 (antibody, V domains shown) VH: EVKLVESGGGLVKPGGSLKLSCAASGFTFSFYAMSWVRQTPEKRLEWVASLSRGGSTYYPDSVKGRFTISRDNARNTLYLQMSSLRSEDTAMFYCAREGATALYAMDYWGQGTSVTVSS VL: DVLMTQTPLSLPVSLGDQASISCRSSQSIVHSNGNTYLQWYLQKPGQSPKLLIYKVSNRFSGVPDRFSGSGSGTDFTLKISRVEAEDLGIYYCFQGSHVPWTFGGGTKLEIK
 | binds | binds | mouse monoclonal antibody 15E10 (antibody, V domains shown) VH: EVKLVESGGGLVKPGGSLKLSCAASGFTFSFYAMSWVRQTPEKRLEWVASLSRGGSTYYPDSVKGRFTISRDNARNTLYLQMSSLRSEDTAMFYCAREGATALYAMDYWGQGTSVTVSS VL: DVLMTQTPLSLPVSLGDQASISCRSSQSIVHSNGNTYLQWYLQKPGQSPKLLIYKVSNRFSGVPDRFSGSGSGTDFTLKISRVEAEDLGIYYCFQGSHVPWTFGGGTKLEIK
